{"sequences": {"note": "Sequences of proteins named here, by UniProt entry; tags and fusion partners are left off.", "UniProt Q9ER71": "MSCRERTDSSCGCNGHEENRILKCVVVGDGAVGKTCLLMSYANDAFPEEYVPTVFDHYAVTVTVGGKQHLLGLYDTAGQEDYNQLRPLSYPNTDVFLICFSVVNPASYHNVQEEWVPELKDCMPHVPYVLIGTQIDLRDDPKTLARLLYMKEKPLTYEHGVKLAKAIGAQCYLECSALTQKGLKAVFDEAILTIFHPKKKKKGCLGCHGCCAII", "UniProt Q80X90": "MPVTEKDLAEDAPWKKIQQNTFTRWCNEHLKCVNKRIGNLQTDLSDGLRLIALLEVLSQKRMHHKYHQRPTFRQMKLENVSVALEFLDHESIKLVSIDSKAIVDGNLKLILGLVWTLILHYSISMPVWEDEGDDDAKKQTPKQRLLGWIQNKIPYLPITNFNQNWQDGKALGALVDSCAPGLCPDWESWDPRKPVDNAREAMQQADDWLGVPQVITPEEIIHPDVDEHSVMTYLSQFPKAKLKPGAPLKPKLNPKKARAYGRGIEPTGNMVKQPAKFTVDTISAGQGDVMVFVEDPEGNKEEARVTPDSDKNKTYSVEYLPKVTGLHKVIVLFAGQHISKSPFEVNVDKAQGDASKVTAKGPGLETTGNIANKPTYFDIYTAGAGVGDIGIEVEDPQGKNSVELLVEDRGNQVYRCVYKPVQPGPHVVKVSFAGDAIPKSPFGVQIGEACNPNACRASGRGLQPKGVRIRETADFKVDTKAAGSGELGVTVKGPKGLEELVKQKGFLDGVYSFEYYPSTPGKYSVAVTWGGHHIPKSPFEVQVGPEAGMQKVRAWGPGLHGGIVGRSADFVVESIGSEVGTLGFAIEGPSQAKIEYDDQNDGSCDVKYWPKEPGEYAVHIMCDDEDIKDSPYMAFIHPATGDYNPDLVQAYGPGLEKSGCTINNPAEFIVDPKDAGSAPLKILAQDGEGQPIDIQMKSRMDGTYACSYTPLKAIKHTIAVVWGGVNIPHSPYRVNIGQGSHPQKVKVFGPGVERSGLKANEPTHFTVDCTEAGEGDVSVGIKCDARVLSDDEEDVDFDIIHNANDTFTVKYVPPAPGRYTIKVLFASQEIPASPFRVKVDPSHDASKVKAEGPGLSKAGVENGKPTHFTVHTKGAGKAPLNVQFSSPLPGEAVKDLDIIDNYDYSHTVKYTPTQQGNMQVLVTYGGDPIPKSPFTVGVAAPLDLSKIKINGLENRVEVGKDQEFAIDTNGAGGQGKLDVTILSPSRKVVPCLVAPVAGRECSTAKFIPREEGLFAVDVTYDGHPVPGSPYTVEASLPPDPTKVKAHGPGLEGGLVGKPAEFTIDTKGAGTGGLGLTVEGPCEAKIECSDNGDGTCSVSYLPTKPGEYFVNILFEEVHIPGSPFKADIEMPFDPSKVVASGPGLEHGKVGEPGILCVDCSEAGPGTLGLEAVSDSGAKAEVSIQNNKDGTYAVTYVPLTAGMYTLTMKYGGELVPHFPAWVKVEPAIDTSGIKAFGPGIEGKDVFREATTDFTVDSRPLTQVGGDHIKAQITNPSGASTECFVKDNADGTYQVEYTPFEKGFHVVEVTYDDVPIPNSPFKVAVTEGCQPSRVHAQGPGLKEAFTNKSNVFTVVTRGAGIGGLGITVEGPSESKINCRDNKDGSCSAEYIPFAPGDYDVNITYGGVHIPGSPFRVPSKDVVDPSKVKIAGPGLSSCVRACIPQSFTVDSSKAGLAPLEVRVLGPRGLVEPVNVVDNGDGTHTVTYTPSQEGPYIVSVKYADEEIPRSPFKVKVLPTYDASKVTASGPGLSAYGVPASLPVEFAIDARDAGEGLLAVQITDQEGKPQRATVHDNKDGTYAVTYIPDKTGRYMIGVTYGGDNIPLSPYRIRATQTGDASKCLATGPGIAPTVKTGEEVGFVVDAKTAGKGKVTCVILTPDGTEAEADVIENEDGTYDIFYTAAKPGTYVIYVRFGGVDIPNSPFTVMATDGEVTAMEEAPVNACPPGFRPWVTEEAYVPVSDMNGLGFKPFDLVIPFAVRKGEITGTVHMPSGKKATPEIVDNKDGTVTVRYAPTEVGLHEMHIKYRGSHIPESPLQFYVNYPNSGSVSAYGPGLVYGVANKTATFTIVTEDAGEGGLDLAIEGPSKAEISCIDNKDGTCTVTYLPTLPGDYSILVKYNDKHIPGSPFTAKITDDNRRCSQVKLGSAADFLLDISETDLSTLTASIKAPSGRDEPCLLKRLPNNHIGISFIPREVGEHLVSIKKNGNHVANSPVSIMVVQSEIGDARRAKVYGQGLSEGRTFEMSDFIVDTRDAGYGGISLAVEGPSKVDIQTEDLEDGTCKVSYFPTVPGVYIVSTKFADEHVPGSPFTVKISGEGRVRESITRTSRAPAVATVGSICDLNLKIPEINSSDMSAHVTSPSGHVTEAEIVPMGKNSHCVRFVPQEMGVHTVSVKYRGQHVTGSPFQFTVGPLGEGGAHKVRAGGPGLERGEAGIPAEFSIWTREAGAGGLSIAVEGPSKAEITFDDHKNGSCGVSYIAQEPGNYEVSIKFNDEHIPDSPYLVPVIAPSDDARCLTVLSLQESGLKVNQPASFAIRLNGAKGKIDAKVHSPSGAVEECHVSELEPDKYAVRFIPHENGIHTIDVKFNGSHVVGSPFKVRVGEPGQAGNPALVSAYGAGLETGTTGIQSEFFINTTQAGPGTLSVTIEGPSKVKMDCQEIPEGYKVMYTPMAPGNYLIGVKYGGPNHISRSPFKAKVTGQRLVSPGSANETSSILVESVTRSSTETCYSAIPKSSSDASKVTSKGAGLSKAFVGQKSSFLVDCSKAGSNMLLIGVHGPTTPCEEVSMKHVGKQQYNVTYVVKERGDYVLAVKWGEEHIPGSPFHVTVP", "UniProt Q91YE6": "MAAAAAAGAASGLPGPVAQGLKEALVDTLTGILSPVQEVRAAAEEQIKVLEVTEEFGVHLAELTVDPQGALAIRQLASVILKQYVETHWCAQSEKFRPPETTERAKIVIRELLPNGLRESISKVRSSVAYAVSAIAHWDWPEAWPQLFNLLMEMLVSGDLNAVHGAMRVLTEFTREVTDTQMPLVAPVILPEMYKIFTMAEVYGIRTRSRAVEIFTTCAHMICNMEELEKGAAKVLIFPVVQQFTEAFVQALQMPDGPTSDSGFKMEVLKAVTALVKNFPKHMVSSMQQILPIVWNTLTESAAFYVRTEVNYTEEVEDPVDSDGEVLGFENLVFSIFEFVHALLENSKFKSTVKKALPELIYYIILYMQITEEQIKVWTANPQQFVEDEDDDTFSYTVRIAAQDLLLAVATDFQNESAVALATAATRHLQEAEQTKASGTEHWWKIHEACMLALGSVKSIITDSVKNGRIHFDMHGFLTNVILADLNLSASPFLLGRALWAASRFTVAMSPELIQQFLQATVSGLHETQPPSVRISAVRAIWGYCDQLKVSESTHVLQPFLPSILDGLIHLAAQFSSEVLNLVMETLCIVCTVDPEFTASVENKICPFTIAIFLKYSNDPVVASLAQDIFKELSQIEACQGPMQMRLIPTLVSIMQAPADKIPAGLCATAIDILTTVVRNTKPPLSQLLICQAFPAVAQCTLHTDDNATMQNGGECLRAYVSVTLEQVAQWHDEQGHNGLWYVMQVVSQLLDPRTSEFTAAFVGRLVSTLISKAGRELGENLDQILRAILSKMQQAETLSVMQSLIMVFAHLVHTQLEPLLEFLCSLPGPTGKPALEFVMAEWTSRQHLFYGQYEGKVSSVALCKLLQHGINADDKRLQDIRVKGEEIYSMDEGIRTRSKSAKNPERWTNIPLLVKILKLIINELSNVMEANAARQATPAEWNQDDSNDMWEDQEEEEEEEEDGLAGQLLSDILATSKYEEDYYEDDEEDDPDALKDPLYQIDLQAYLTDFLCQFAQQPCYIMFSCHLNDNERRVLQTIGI", "UniProt P26039": "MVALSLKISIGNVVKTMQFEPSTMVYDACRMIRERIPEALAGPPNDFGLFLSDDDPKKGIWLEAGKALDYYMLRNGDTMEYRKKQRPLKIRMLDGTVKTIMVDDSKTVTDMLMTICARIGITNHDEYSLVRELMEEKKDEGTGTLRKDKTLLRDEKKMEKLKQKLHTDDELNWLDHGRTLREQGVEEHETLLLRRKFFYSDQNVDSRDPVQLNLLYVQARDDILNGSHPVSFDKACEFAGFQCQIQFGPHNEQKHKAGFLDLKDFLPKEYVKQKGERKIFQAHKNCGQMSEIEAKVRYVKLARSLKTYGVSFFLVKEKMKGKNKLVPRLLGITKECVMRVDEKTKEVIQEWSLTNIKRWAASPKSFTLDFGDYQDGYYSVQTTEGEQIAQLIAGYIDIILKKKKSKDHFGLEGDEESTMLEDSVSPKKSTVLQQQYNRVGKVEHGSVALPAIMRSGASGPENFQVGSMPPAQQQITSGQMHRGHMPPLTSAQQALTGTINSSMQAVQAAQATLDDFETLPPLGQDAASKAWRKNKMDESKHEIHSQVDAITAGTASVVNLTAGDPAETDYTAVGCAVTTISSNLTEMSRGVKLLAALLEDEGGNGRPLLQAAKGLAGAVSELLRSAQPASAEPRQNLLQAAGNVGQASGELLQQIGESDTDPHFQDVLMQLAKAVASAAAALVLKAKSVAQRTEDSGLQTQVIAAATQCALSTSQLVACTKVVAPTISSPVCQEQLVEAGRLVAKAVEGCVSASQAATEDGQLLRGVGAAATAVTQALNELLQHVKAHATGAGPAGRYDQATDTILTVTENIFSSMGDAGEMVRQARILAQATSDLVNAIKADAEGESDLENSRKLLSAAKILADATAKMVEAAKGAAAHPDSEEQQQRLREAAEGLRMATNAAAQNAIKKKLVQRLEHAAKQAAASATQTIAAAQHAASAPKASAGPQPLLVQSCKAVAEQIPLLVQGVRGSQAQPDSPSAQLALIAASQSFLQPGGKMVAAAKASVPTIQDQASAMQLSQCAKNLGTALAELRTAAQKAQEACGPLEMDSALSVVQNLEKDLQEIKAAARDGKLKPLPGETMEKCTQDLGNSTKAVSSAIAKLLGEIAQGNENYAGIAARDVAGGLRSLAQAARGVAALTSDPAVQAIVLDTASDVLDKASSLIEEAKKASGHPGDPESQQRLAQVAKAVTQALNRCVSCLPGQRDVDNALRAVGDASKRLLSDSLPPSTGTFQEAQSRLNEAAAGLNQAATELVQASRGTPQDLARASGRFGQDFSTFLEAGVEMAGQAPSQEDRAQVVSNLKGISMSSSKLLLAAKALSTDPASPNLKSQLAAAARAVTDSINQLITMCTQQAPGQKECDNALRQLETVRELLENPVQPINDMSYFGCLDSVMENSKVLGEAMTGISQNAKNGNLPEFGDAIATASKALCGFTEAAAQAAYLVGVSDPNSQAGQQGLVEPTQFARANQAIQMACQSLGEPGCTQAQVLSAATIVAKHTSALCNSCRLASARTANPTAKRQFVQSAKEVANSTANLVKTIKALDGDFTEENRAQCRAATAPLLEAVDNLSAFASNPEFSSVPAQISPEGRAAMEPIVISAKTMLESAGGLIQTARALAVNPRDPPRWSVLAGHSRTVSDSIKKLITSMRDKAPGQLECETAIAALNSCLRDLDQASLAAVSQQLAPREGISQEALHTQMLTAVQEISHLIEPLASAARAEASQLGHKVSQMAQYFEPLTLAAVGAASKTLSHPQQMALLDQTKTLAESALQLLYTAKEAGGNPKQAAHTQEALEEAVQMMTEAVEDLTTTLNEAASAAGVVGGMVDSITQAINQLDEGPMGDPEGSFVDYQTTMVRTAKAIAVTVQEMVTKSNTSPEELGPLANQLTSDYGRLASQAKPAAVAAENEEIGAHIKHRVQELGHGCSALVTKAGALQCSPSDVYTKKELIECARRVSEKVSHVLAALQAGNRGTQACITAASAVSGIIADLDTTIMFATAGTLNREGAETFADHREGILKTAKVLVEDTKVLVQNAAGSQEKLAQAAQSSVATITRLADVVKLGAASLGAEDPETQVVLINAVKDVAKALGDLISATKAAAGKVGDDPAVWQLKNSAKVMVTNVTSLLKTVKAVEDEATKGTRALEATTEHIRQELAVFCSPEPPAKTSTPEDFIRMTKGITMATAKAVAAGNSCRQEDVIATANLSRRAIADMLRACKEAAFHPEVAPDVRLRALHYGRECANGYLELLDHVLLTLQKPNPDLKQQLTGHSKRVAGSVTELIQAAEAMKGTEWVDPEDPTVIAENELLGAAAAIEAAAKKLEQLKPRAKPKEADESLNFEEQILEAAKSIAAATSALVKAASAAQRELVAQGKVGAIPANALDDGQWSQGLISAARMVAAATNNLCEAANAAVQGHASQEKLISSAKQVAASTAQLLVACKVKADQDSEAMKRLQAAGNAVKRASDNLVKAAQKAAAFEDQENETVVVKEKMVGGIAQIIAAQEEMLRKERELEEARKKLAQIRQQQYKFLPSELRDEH"}, "source": "paper PMC10076223", "note": "These are yes or no findings as the source states them, for the method shown. Binding seen in cells or lysates may run through a third protein. These calls come from enrichment with a bait or labelling near it, and not all partners need be listed.", "data": [{"target": "3HA-tagged RHOJ (UniProt Q9ER71)", "experiment": "affinity purification with mass spectrometry; anti-HA immunoprecipitation (rabbit HA tag ab9110, Dynabeads Protein G) from 1 mg lysate of EPCAM− cells expressing 3HA-tagged RHOJ versus empty vector; cells untreated (DMSO) or treated 12 h with cisplatin/5FU; lysis buffer 150 mM NaCl, 50 mM HEPES pH 7.5, 2 mM EDTA, 1% Triton X-100; on-bead trypsin digestion, LC-MS/MS, FDR <0.05 and fold change >2", "values": [{"molecule": "FLNB (from UniProt Q80X90 1-2602)", "binding": "binds"}, {"molecule": "IPO9 (from UniProt Q91YE6 1-1041)", "binding": "binds"}, {"molecule": "TLN1 (from UniProt P26039 1-2541)", "binding": "binds"}, {"molecule": "GPRC5A (receptor, UniProt Q8BHL4 1-356) MTTPTTAPSGCRSDLDSRYHRLCDLAEGWGIALETLAAVGAVATVACMFALVFLICKVQDSNKRKMLPAQFLFLLGVLGVFGLTFAFIIKLDGATGPTRFFLFGVLFAICFSCLLAHAFNLIKLVRGRKPLSWLVILSLAVGFSLVQDVIAIEYLVLTMNRTNVNVFSELPAPRRNEDFVMLLIYVLVLMVLTFFTSFLVFCGSFSGWKRHGFHICFTSFLSIAIWVAWIVLLLIPDIDRKWDDTILSTALVANGWVFLAFYILPEFRQLPRQRSPTDYPVEDAFCKPQLMKQSYGVENRAYSQEEITQGLEMGDTLYAPYSTHFQLQNHQKDFSIPRAQAPASPYNDYEGRKGDS", "binding": "binds"}]}]}
